In the supplement of paper PMC4604168 (melanoma cell lines):
The list shows a part of the results. Repeats are few or missing, and single values can be far off.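 Imaging used 1,536-well plates; nuclei positive for cleaved PARP by antibody were divided by total DNA-stained nuclei to yield the apoptosis fraction. Doses for screening kept most cells viable, and cell lines differ markedly in resting and induced cleaved-PARP levels.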

Assays:
Assay in all cases: cleaved PARP positive nuclei fraction relative to DMSO control; melanoma cells; higher = more apoptosis
Conditions in all cases: library dose: low library concentration; 72 h
501Mel = system: 501Mel
A101D = system: A101D
A2058 = system: A2058
A375 = system: A375
C32 = system: C32
CBRC008 = system: CBRC008 (line from a melanoma biopsy)
CBRC013 = system: CBRC013 (line from a melanoma biopsy)
CBRC014 = system: CBRC014 (line from a melanoma biopsy)
CBRC016 = system: CBRC016 (line from a melanoma biopsy)
CBRC017 = system: CBRC017 (line from a melanoma biopsy)
COLO792 = system: COLO792
COLO800 = system: COLO800
COLO829 = system: COLO829
G361 = system: G361
IPC-298 = system: IPC-298
IST-MEL1 = system: IST-MEL1
LB2518-MEL = system: LB2518-MEL
LOXIMVI = system: LOXIMVI
MEL-HO = system: MEL-HO

SMILES | cleaved PARP positive nuclei fraction (501Mel) [%] | cleaved PARP positive nuclei fraction (A101D) [%] | cleaved PARP positive nuclei fraction (A2058) [%] | cleaved PARP positive nuclei fraction (A375) [%] | cleaved PARP positive nuclei fraction (C32) [%] | cleaved PARP positive nuclei fraction (CBRC008) [%] | cleaved PARP positive nuclei fraction (CBRC013) [%] | cleaved PARP positive nuclei fraction (CBRC014) [%] | cleaved PARP positive nuclei fraction (CBRC016) [%] | cleaved PARP positive nuclei fraction (CBRC017) [%] | cleaved PARP positive nuclei fraction (COLO792) [%] | cleaved PARP positive nuclei fraction (COLO800) [%] | cleaved PARP positive nuclei fraction (COLO829) [%] | cleaved PARP positive nuclei fraction (G361) [%] | cleaved PARP positive nuclei fraction (IPC-298) [%] | cleaved PARP positive nuclei fraction (IST-MEL1) [%] | cleaved PARP positive nuclei fraction (LB2518-MEL) [%] | cleaved PARP positive nuclei fraction (LOXIMVI) [%] | cleaved PARP positive nuclei fraction (MEL-HO) [%]
CN(c1ncccc1CNc1nc(Nc2ccc3c(c2)CC(=O)N3)ncc1C(F)(F)F)S(C)(=O)=O + Cc1ccc(NC(=O)c2cccc(N(C)C)c2)cc1NC(=O)c1ccc(O)cc1 [ZM336372] (first compound 0.08 µM, partner dose 2 µM) | 43.4 | 48.8 | 121 | 71.7 | 456 | 57.8 | 77 | 104 | 62 | 74 | 130 | 93.8 | 148 | 134 | 143 | 136 | 93.7 | 55.8 | 81.6
CC1(C)CCC(c2ccc(Cl)cc2)=C(CN2CCN(c3ccc(C(=O)NS(=O)(=O)c4ccc(N[C@H](CCN5CCOCC5)CSc5ccccc5)c(S(=O)(=O)C(F)(F)F)c4)cc3)CC2)C1 + Cn1cncc1[C@@](N)(c1ccc(Cl)cc1)c1ccc2c(c1)c(-c1cccc(Cl)c1)cc(=O)n2C [tipifarnib] (first compound 0.4 µM, partner dose 0.01 µM) | 95 | 184 | 136 | 2410 | 653 | 1140 | 495 | 387 | 909 | 342 | 262 | 19.6 | 111 | 71.1 | 511 | 171 | 261 | 129 | 283
C[C@]1(O)C[C@@H](c2nc(-c3ccc4ccc(-c5ccccc5)nc4c3)c3c(N)nccn32)C1 + O=C(O)c1ccc(-c2c[nH]c3ncc(-c4ccccc4)cc23)cc1C1CCCC1 [GSK650394] (first compound 0.4 µM, partner dose 0.16 µM) | 95.3 | 72.7 | 63.9 | 441 | 33.4 | 400 | 115 | 99 | 164 | 176 | 45.6 | 237 | 164 | 74.7 | 47.9 | 50.1 | 92.2 | 70.7 | 146
CC(=O)O[C@@]12CO[C@@H]1C[C@H](O)[C@@]1(C)C(=O)[C@H](O)C3=C(C)[C@@H](OC(=O)[C@H](O)[C@@H](NC(=O)OC(C)(C)C)c4ccccc4)C[C@@](O)([C@@H](OC(=O)c4ccccc4)[C@H]21)C3(C)C [Docetaxel] + CC1(C)NC(=O)N(c2ccc([N+](=O)[O-])c(C(F)(F)F)c2)C1=O [nilutamide] (first compound 0.0001 µM, partner dose 1 µM) | 122 | 194 | 5040 | 12300 | 338 | 200 | 95.3 | 167 | 201 | 162 | 548 | 342 | 484 | 752 | 193 | 94.1 | 71.6 | 133 | 159
CN(c1ncccc1CNc1nc(Nc2ccc3c(c2)CC(=O)N3)ncc1C(F)(F)F)S(C)(=O)=O + Cn1cncc1[C@@](N)(c1ccc(Cl)cc1)c1ccc2c(c1)c(-c1cccc(Cl)c1)cc(=O)n2C [tipifarnib] (first compound 0.08 µM, partner dose 0.01 µM) | 91.8 | 103 | 157 | 137 | 160 | 234 | 233 | 317 | 189 | 67 | 151 | 65.3 | 123 | 36.2 | 51.8 | 221 | 88.6 | 115 | 72.4
Cn1cnc2c(F)c(Nc3ccc(Br)cc3Cl)c(C(=O)NOCCO)cc21 [selumetinib] + Cn1cncc1[C@@](N)(c1ccc(Cl)cc1)c1ccc2c(c1)c(-c1cccc(Cl)c1)cc(=O)n2C [tipifarnib] (first compound 0.015 µM, partner dose 0.01 µM) | 151 | 280 | 193 | 213 | 38.6 | 26.7 | 115 | 91 | 131 | 144 | 54.5 | 82 | 110 | 209 | 74.3 | 211 | 130 | 290 | 222
NC(=O)c1ccc(N(C(N)=O)c2c(F)cccc2F)nc1-c1ccc(F)cc1F + CC(C)(C)c1cnc(CSc2cnc(NC(=O)C3CCNCC3)s2)o1 [SNS-032] (first compound 0.4 µM, partner dose 0.01 µM) | 58.8 | 91.9 | 121 | 220 | 18.7 | 163 | 174 | 77.3 | 93.1 | 200 | 120 | 204 | 97.1 | 68.9 | 89.1 | 92.8 | 259 | 343 | 30.1
CS(=O)(=O)c1ccc(C(=O)Nc2ccc(Cl)c(-c3ccccn3)c2)c(Cl)c1 [vismodegib] + CO[C@@H]1[C@H](N(C)C(=O)c2ccccc2)C[C@H]2O[C@]1(C)n1c3ccccc3c3c4c(c5c6ccccc6n2c5c31)C(=O)NC4 [Midostaurin] (first compound 1 µM, partner dose 0.08 µM) | 75.1 | 77.5 | 121 | 79.3 | 67.8 | 98.7 | 161 | 75.2 | 49.6 | 134 | 88.3 | 81.5 | 112 | 85.5 | 87.2 | 59.6 | 19.7 | 91.1 | 549
Cn1sc(=O)n(Cc2ccccc2)c1=O + OCCn1cc(-c2cnc3nnn(Cc4ccc5ncccc5c4)c3n2)cn1 [PF04217903] (first compound 0.4 µM, partner dose 1 µM) | 110 | 75 | 50.8 | 37 | 141 | 96.5 | 80.4 | 64.9 | 58.7 | 102 | 132 | 88.4 | 103 | 157 | 89.2 | 29.7 | 41.9 | 102 | 73.9
NC1(c2ccc(-c3nc4ccn5c(=O)[nH]nc5c4cc3-c3ccccc3)cc2)CCC1 + O=C(Nc1cccc(Cl)c1)Nc1ncc(CCNc2ncnc3ccsc23)s1 [SNS314] (first compound 0.4 µM, partner dose 0.0008 µM) | 97.8 | 83.5 | 108 | 111 | 87.6 | 221 | 114 | 74.2 | 55.5 | 141 | 126 | 158 | 144 | 63.1 | 97.6 | 266 | 137 | 224 | 81.6
CS(=O)(=O)c1ccc(C(=O)Nc2ccc(Cl)c(-c3ccccn3)c2)c(Cl)c1 [vismodegib] + Cc1ccc(NC(=O)c2cccc(N(C)C)c2)cc1NC(=O)c1ccc(O)cc1 [ZM336372] (first compound 1 µM, partner dose 2 µM) | 70.2 | 76.6 | 103 | 28.7 | 227 | 72 | 76.6 | 106 | 145 | 80.9 | 20.6 | 59.9 | 49.8 | 72.8 | 64.3 | 276 | 94.2 | 61.6 | 281
NC(=O)c1ccc(N(C(N)=O)c2c(F)cccc2F)nc1-c1ccc(F)cc1F + O=C(CCCCCCC(=O)Nc1ccccc1)NO [vorinostat] (first compound 0.4 µM, partner dose 0.08 µM) | 106 | 155 | 125 | 35.8 | 42.1 | 39.4 | 53.1 | 74.7 | 93.4 | 91.5 | 127 | 51.8 | 257 | 104 | 31.1 | 102 | 108 | 36 | 144
CS(=O)(=O)c1ccc(C(=O)Nc2ccc(Cl)c(-c3ccccn3)c2)c(Cl)c1 [vismodegib] + Cn1cncc1[C@@](N)(c1ccc(Cl)cc1)c1ccc2c(c1)c(-c1cccc(Cl)c1)cc(=O)n2C [tipifarnib] (first compound 1 µM, partner dose 0.01 µM) | 94.2 | 146 | 24.7 | 121 | 93.5 | 184 | 114 | 102 | 57.7 | 120 | 127 | 159 | 63.7 | 133 | 95.7 | 90.4 | 52.7 | 79.2 | 71.8
NC1(c2ccc(-c3nc4ccn5c(=O)[nH]nc5c4cc3-c3ccccc3)cc2)CCC1 + C[C@@H]1CCN(C(=O)CC#N)C[C@@H]1N(C)c1ncnc2[nH]ccc12 [CP690550] (first compound 0.4 µM, partner dose 1 µM) | 83 | 47.1 | 194 | 151 | 125 | 45 | 97.6 | 87.3 | 118 | 93.2 | 222 | 18.6 | 157 | 64.6 | 148 | 113 | 50.8 | 38.9 | 98.7
C[C@]1(O)C[C@@H](c2nc(-c3ccc4ccc(-c5ccccc5)nc4c3)c3c(N)nccn32)C1 + O=C(Nc1cccc(Cl)c1)Nc1ncc(CCNc2ncnc3ccsc23)s1 [SNS314] (first compound 0.4 µM, partner dose 0.0008 µM) | 341 | 80.4 | 38.2 | 235 | 101 | 74.6 | 144 | 78.9 | 81.4 | 85.4 | 257 | 120 | 57.7 | 143 | 193 | 80.5 | 54.2 | 118 | 146
C[C@]1(O)C[C@@H](c2nc(-c3ccc4ccc(-c5ccccc5)nc4c3)c3c(N)nccn32)C1 + NC(=O)Nc1cc(-c2cccc(F)c2)sc1C(=O)N[C@H]1CCCNC1 [AZD7762] (first compound 0.4 µM, partner dose 0.02 µM) | 88.4 | 43.6 | 55.6 | 769 | 368 | 40 | 78.8 | 111 | 89.4 | 116 | 40.2 | 294 | 71.3 | 92.5 | 90.2 | 26.9 | 97.5 | 117 | 88.2

Reformatted in markdown: part of the list above.

| SMILES | cleaved PARP positive nuclei fraction (501Mel) [%] | cleaved PARP positive nuclei fraction (A101D) [%] | cleaved PARP positive nuclei fraction (A2058) [%] | cleaved PARP positive nuclei fraction (A375) [%] | cleaved PARP positive nuclei fraction (C32) [%] | cleaved PARP positive nuclei fraction (CBRC008) [%] | cleaved PARP positive nuclei fraction (CBRC013) [%] | cleaved PARP positive nuclei fraction (CBRC014) [%] | cleaved PARP positive nuclei fraction (CBRC016) [%] | cleaved PARP positive nuclei fraction (CBRC017) [%] | cleaved PARP positive nuclei fraction (COLO792) [%] | cleaved PARP positive nuclei fraction (COLO800) [%] | cleaved PARP positive nuclei fraction (COLO829) [%] | cleaved PARP positive nuclei fraction (G361) [%] | cleaved PARP positive nuclei fraction (IPC-298) [%] | cleaved PARP positive nuclei fraction (IST-MEL1) [%] | cleaved PARP positive nuclei fraction (LB2518-MEL) [%] | cleaved PARP positive nuclei fraction (LOXIMVI) [%] | cleaved PARP positive nuclei fraction (MEL-HO) [%] |
| --- | --- | --- | --- | --- | --- | --- | --- | --- | --- | --- | --- | --- | --- | --- | --- | --- | --- | --- | --- |
| CN(c1ncccc1CNc1nc(Nc2ccc3c(c2)CC(=O)N3)ncc1C(F)(F)F)S(C)(=O)=O + Cn1cncc1[C@@](N)(c1ccc(Cl)cc1)c1ccc2c(c1)c(-c1cccc(Cl)c1)cc(=O)n2C [tipifarnib] (first compound 0.08 µM, partner dose 0.01 µM) | 91.8 | 103 | 157 | 137 | 160 | 234 | 233 | 317 | 189 | 67 | 151 | 65.3 | 123 | 36.2 | 51.8 | 221 | 88.6 | 115 | 72.4 |
| Cn1sc(=O)n(Cc2ccccc2)c1=O + OCCn1cc(-c2cnc3nnn(Cc4ccc5ncccc5c4)c3n2)cn1 [PF04217903] (first compound 0.4 µM, partner dose 1 µM) | 110 | 75 | 50.8 | 37 | 141 | 96.5 | 80.4 | 64.9 | 58.7 | 102 | 132 | 88.4 | 103 | 157 | 89.2 | 29.7 | 41.9 | 102 | 73.9 |
